In the DeepSol protein solubility set:

Experiment: soluble on expression in E. coli; label from the status in PepcDB or PDB records

Sequence	soluble on expression in E. coli
MSLVMRESTTISKRRACLLAGLSRTVLHYESKVQPENEQLQARLVEVASERRRFGYRRLHALVRREGVQVNHKRIYRLYSSAGLSVRHRKKRHGVAVERQALELPSSPKQVWSMDFVSDALANGRRIKVLTIVDDFSKEAIDLAVDFGISGHYVTRVLDQAARFRGYPKAVRTDQGPEFTGKAMDQWAYQHGVQLKLIQAGKPTQNAFIESFNGRFRDECLNDHWFTSLPQARILIAAWRRDYNQHRPHSSMDYLTPAEFAAKHRSCDPDDPVGKGCLEGHHHHHH	soluble
MSPGSVVVTGANRGIGLGLVKQFVKDKNIRHIIATARDVEKATVSLKTQFYNCMCFSKNQDLKSINDPRLHVIPLALTCDKSMDKFVSKVGDIVGSDGLNLLVNNAGSAVKYSTKAEPSRAKLVEQFDVNTFSVVILSQKLLPLLTKASSKVSGDELSVSRAAVVTISSGLGSITENTSGSGVIEGLAYRMSKSAVNMFARTFAIDMKDDYILAANFCPGWVQTDMGGKHAALTVSLGV	not soluble
MTLPWNTFPGSTVPPVVPSVEDIIRMLVAGQQKIAIQNLLQSQSKEQVNGTSHDLQNWLTSLCISPSSSPTPSNASTSTIPAQMTNENVLHLQIQSQLFSNLGTPWFLNPEQHNKTNNAIRKRPKKEFICKYCARHFTKSYNLMIHERTHTNERPFHCETCGKSFRRQDHLRDHKYIHAKEKPHKCEICGKGFCQLRTLNVHRSCHHVQEPISETFMLGAIKFGKADSLLIDAEPLIDVTTI	not soluble
MTTTEEAPKSPLFEAIDKNDTEAALALLKTKEQAAQRDPSGMSVLAAAAYRGNLTLVEKAIELKCDVNDKTDGTLYTPLMFAALSGKQDVCRLLMDSGARMYLVNGIGKTASELAAFVGHHECVAIINNHITIDVIEDLLRPKVNGKYEGAEEYPDELAVFIHSLCGSHEIHPVKIIFRFSKYPDSLKYKKKILYVIDRVFEKQLRCKESNEIMSLKLWLILFSMRETSKFVESNKEKSPEEASLQYAKLISTWQEGDETRRALDVMLRNAVASFPYKHSLLHDTLQKALQKSQIGERPSAYEYIVQALFGQRIAAVCQFCSVCGHPGAKKRCTQCKLAYCSQECQKFDWPIHKKVCSFLKTRQEVSPTDETAMSLDDIQAQIAKIDV	not soluble
SASPRTRKVLKEVRAQDENNVCFECGAFNPQWVSVTYGIWICLECSGRHRGLGVHLSFVRSVTMDKWKDIELEKMKAGGNAKFREFLEAQDDYEPSWSLQDKYSSRAAALFRDKVATLAEGKEWSLESSPAQNWTPPQPKTLQFTAHRPAGQPQNVTTSGDKAFEDWLNDDLGSYQGAQENRYVGFGNTVPPQKREDDFLNSAMSSLYSGWSSFTTGASKFASAAKEGATKFGSQASQKASELGHSLNENVLKPAQEKVWVAPKSRCLCVPLRLFTDLGNGYVGDLQNLASNLLQSRWPWASFS	soluble
SKFIIGIGGVTNGGKTTLTNRLIKALPNCCVVHQDDFFKPPDQIAVGMDGFKQWDVIDALDMEAMVNTIKGWLENPVKFARSHGIQVTPATEMEDPESQVHILIVEGFLLYNYKPLLDVFDKSYYITIPYEECKKRRSTRQYTVPDPPGLFDGHVWPMYLKHRFAMENCGLPIEYLDGLKTKDEIYNQVYEDVHNTLLNRL	soluble
SSSLRQVEWIIEDSGAVFAITETREHSELMKNLVLGDDGHPPLKGSPSQLRRIVEINSSAISTLKFEGRDVPDSVVEERIANTSSSDLASLVYTSGTTGRPKGCCLTHYNWLSQVRGLLTNDIGAIAVPGNR	not soluble
